Results deposited as PubChem BioAssay AID1259405 (NCATS, 2018).

Assay: 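Knock-downs that lift recombinant protein yield in hamster ovary cells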 (primary screen)
System: Chinese hamster CHO-K1 ovary cells with stable secreted eGFP expression
Reagents: single siRNA against mouse genes, 0.8 pmol siRNA per well (2 µl of 400 nM stock)
Time to read-out: 3 days
Detection: 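Percent of the per-plate non-targeting control median for intracellular GFP per well by laser scanning cytometry and for cell viability by ATP luminescence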
Reading the numbers: GFP, % of control: higher = more GFP per well, higher productivity
Hit rule: 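a knock-down is called active if GFP reaches 120% or more of non-targeting control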
This is an unselected part of about 50,000 reagents tested. Over the whole deposit, about 4,000 (8%) got an active call. 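Mouse siRNA library applied to hamster cells; one well for each siRNA.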 Unmarked entries are inactive. Reagents against one gene are numbered here. Not all columns of the deposit are shown.

GFP, % of control, by target and reagent
Wdfy2 (GeneID 268752): #1 46.7; #2 38.7; #3 75.7
Syp (GeneID 20977): #1 98.7; #2 84.1
Atp8a2 (GeneID 50769): #1 86.7; #2 59.5; #3 13.7
Slc38a10 (GeneID 72055): #1 99.1; #2 51.2; #3 81.7
Ythdf3 (GeneID 229096): #1 76.6; #2 78.4; #3 69
Rhbdf1 (GeneID 13650): #1 93.6; #2 74.4; #3 63.1
Lrrc14 (GeneID 223664): #1 97; #2 71.5; #3 75.6
Osbpl10 (GeneID 74486): #1 66.3; #2 83.7; #3 123 (active)
Dclk3 (GeneID 245038): #1 65.9; #2 0.0238
Tph2 (GeneID 216343): #1 69.5; #2 41.4; #3 81.7
Golga3 (GeneID 269682): #1 84.9; #2 87.4; #3 99.3
Dab1 (GeneID 13131): #1 57; #2 56.3
Or52z14 (GeneID 259080): #1 55.5; #2 69.2; #3 43.7
Tex13c3 (GeneID 278255): #1 58.3; #2 71.1; #3 75.2
Nrbp2 (GeneID 223649): #1 47.3

6 of these entries in another layout.
{"target":"Tph2 (GeneID 216343)","reagent no.":3,"GFP, % of control":81.7}
{"target":"Golga3 (GeneID 269682)","reagent no.":1,"GFP, % of control":84.9}
{"target":"Golga3 (GeneID 269682)","reagent no.":2,"GFP, % of control":87.4}
{"target":"Golga3 (GeneID 269682)","reagent no.":3,"GFP, % of control":99.3}
{"target":"Dab1 (GeneID 13131)","reagent no.":1,"GFP, % of control":57}
{"target":"Dab1 (GeneID 13131)","reagent no.":2,"GFP, % of control":56.3}

Additional records follow.
GFP, % of control, by target and reagent
Rab2b (GeneID 76338): #1 78.9; #2 151 (active); #3 63
Zfp395 (GeneID 380912): #1 100; #2 53.2; #3 80.2
Or8s5 (GeneID 258278): #1 38.3; #2 91.6; #3 101
Pcdhga7 (GeneID 93715): #1 59.7; #2 35.5; #3 30.1
Siglecl2 (GeneID 74054): #1 89.7; #2 46.4; #3 95.9
Wdr47 (GeneID 99512): #1 71.9; #2 44.2; #3 77.1
Msh6 (GeneID 17688): #1 70.8; #2 118; #3 93.4
9430025C20Rik (GeneID 442813): #1 47.4; #2 60.6; #3 43.3
Gsr (GeneID 14782): #1 80.1; #2 64; #3 81.9
Peak1 (GeneID 244895): #1 111; #2 77.8; #3 49.8
Mdh1b (GeneID 76668): #1 101; #2 74.5; #3 91.3
Tlcd1 (GeneID 68385): #1 85.9; #2 77.7; #3 85.2
Mmp28 (GeneID 118453): #1 47.2; #2 59.7; #3 88.8
Mkx (GeneID 210719): #1 86.1; #2 85.3
Nav2 (GeneID 78286): #1 54.8; #2 64.3; #3 66.1
